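Luminescence from an EWS-FLI1 target-promoter (NR0B1) reporter, set against a CMV-promoter reporter, two days after silencing single genes in TC32 Ewing sarcoma cells.
Each siRNA was applied at 20 nM.
A z-score of the log NR0B1-over-CMV signal, less the median of siRNAs with the same seed; more negative means a stronger specific loss of the NR0B1 reporter.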

This is part of the screen; most of the strongest results are not listed here.
Sequences are the guide (antisense) strand, without overhang.

| # | Sequence | gene | seed-corrected z-score |
|---|---|---|---|
| 1 | `UCGAGGAAAAGCACUAUGG` | C9orf3 | 0.6522 |
| 2 | `UUUAGUUCAAGGGUAAGGC` | CEP89 | -0.3782 |
| 3 | `AGCGAUUCAGGUUCUGUGG` | KRT84 | 0.1429 |
| 4 | `UAUGGUUCCACGAGGAGGG` | NEURL2 | -0.9736 |
| 5 | `UCAAUGAUCACCUUGCAGC` | LIMK2 | 0.3848 |
| 6 | `AGAGGUAGACGAACAGAGG` | FZD7 | -0.1801 |
| 7 | `UUCGCCCUAAGAAAUCUUG` | STYK1 | -0.23 |
| 8 | `UUAGGCACUCUCGGAAUCC` | HEY2 | 1.203 |
| 9 | `ACUGCUAUUAGUAAUAGGG` | EPC1 | -0.927 |
| 10 | `UUUGGAAUCAUCUGAGUAA` | CXorf36 | 1.418 |
| 11 | `UUAUAUCCCUUUACUAUUG` | MED27 | -0.9065 |
| 12 | `UUCUCAUUCAAAAAUGCCU` | DDC | -0.4644 |
| 13 | `AUAGCAGUUGAUAUCAUCC` | ACVR2A | 0.4776 |
| 14 | `UUUCCAACCCUGCAUGACC` | ALDH1B1 | 0.313 |
| 15 | `UCAGUGCACAGGAUCUUGC` | NRG2 | 0.2116 |
| 16 | `UCUUGUCUAAGGCACGAGC` | QPCT | -0.08891 |
| 17 | `AAUGAUGAUUGGUAAGGCC` | SLC28A2 | 0.3011 |
| 18 | `AAAGACUCACUCAAAAUCC` | LOC643355 | 0.4463 |
| 19 | `UGUACAUCAGGAUCCAUGC` | INTS2 | 0.3239 |
| 20 | `UAUCGUUGCUGUCUGAUCU` | RHD | -1.625 |
| 21 | `AAUUGAUCAAGAUCAAGUC` | TEK | -0.4068 |
| 22 | `UAAGUUAAGUGAUUGUAAG` | AMELY | 0.4873 |
| 23 | `UAAAUGGGUAGACAAUUGC` | LPAR6 | 0.2237 |
| 24 | `UAUGUGGUCAAGCUCCUCG` | MAST4 | -0.3054 |
| 25 | `UAUCGAACUCAAGAAAUGC` | CABP5 | 0.6437 |
| 26 | `UUUCUUGUCGCCCACGUUC` | COMT | 0.2628 |
| 27 | `UAGUCAUUCGUUUUCGUGG` | TNFRSF17 | 0.1912 |
| 28 | `UAUUCUUAGAUUCAGCCGC` | HIST1H4C | -0.116 |
| 29 | `UAGGAGAUGACAUAGGGCU` | ALDH2 | 0.7177 |
| 30 | `AUAGGAUCAAGUUCCUUAU` | ATP5J | 0.666 |
| 31 | `UUACUAACAUUUUGGGUCC` | OR8K3 | 0.2324 |
| 32 | `UAUGUCUUGAACUGGACCC` | LYPLA2 | -1.334 |
| 33 | `UGAACGUGAAAUAUAGUGG` | FUT2 | 0.4207 |
| 34 | `UAACUGGUUCUUGCGUAGC` | TM2D1 | -0.06875 |
| 35 | `UAUGUCUCUUCAGAUGUGA` | ZNF519P3 | -0.1039 |
| 36 | `UGAUCUUCAAGUGGACGGC` | BNC1 | 0.6394 |
| 37 | `UUAAUUCGCUCCAAUAUUG` | AASS | 1.066 |
| 38 | `AGAGAGUUUACUAACAUCC` | PSMA4 | -0.008125 |
| 39 | `UAGUUUGUAAGGGACCACA` | HAPLN4 | 0.3904 |
| 40 | `UAUAAGACGAUGAAAGUGG` | GPR88 | -1.771 |
| 41 | `ACAUUUCUUAUCAACAUGC` | OR51F2 | 1.924 |
| 42 | `UACCUUCUCACUUAGUUGU` | PDCD5 | 0.4522 |
| 43 | `UCAUUUCGGCCGUACAUCU` | TEAD3 | -0.626 |
| 44 | `UUUGCUAUCACGGACCAGG` | AQP7 | -0.0935 |
| 45 | `UUUGGUUCUCUUUAAACCA` | SOGA1 | 0.3186 |
| 46 | `UGACUUACUGGAUCCUUUC` | FAM9C | -0.935 |
| 47 | `UUCGGGAUUACAGAGCAGG` | STAG3 | 0.7344 |
| 48 | `UGGUUGAACAUGUCCCUGC` | SPRED2 | -1.185 |
| 49 | `UUAGGGACAACGGCAACUU` | TRIM45 | 0.9954 |
| 50 | `UUCGUGGUUGGUGUCAUCA` | CNP | -0.8401 |
| 51 | `UAGAUUAAGAUAAUAGCUG` | CEP19 | 1.241 |
| 52 | `AUGCAGAUAAUUAGGUUCC` | KMO | -0.09306 |
| 53 | `AAUUCGACGAGUGCCCUCC` | GLTPD2 | -0.703 |
| 54 | `AAUUGGUCAGCCGUUUUCU` | LOC440386 | -0.352 |
| 55 | `UCUUAUGACAAGAUGGUUG` | C15orf32 | 0.2769 |
| 56 | `UGAAUUGCAGACACUCUUC` | PSMB6 | 0.6564 |
| 57 | `UCUCUGUGAGCUGAUUCCC` | PODN | 0.5915 |
| 58 | `AAUGGAGCAAAUGUUAUCC` | GNB1 | -0.9515 |
| 59 | `AAUUGGACCUUGGGAUUCU` | METTL23 | -0.1524 |

6 of the entries, repeated:

{"sequence": "UCUUGUCUAAGGCACGAGC", "gene": "QPCT", "seed-corrected z-score": "-0.08891"}
{"sequence": "AAUUGAUCAAGAUCAAGUC", "gene": "TEK", "seed-corrected z-score": "-0.4068"}
{"sequence": "UAUUCUUAGAUUCAGCCGC", "gene": "HIST1H4C", "seed-corrected z-score": "-0.116"}
{"sequence": "UAGUUUGUAAGGGACCACA", "gene": "HAPLN4", "seed-corrected z-score": "0.3904"}
{"sequence": "UGAUCUUCAAGUGGACGGC", "gene": "BNC1", "seed-corrected z-score": "0.6394"}
{"sequence": "UUACUAACAUUUUGGGUCC", "gene": "OR8K3", "seed-corrected z-score": "0.2324"}

Data taken from PubChem BioAssay AID1159506, deposited by NCATS (2015).